Protein sequences, listed by entry. Tags and fused reporters are not part of them. Lines headed by an entry give the natural chain unless they say otherwise; changes in a name come on top.
UniProt Q80WQ6: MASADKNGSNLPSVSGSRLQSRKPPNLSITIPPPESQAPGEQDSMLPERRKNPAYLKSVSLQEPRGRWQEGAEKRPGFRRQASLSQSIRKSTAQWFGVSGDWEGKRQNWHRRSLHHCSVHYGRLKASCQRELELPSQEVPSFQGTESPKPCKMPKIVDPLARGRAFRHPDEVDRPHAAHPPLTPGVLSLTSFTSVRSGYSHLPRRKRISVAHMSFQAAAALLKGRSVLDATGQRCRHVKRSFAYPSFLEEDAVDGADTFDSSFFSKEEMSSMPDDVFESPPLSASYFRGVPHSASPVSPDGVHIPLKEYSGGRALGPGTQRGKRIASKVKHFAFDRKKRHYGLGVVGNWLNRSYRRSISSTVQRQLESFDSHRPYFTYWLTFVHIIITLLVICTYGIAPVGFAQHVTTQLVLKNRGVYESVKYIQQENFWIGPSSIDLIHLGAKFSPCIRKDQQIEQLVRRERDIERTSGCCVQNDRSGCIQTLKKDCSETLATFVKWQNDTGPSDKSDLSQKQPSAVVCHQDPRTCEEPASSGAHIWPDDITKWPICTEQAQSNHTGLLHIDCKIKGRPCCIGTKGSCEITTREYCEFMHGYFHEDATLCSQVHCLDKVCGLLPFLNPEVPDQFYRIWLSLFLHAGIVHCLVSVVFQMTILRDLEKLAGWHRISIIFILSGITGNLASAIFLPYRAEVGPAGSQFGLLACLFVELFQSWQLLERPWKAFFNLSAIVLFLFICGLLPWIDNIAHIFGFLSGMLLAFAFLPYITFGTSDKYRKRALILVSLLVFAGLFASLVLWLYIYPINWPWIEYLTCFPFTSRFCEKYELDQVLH

According to article PMC6042961:

Target: mouse iRhom2^pDEAD-3xHA (mouse) (UniProt Q80WQ6)
Experiment: co-IP; lysates in 1% Triton X-100, 150 mM NaCl, 50 mM Tris-HCl pH 7.5; anti-HA or anti-V5 magnetic beads 1 hr at 4°C; wash with 300 mM NaCl; western blot; HEK293T cells (wild type, ADAM17 KO, FRMD8 KO, or iRhom1/2 DKO reconstituted with iRhom2^WT-3xHA; with or without 200 nM PMA for 30 min)

B1: human FRMD8-V5 (protein, UniProt Q9BZ67-1 1-464)
chain: MDGTEGSAGQPGPAERSHRSSVSSVGARAADVLVYLADDTVVPLAVENLPSLSAHELHRAVREVLQLPDIALDVFALWLVSPLLEVQLKPKHQPYKLGRQWPELLLRFTSAPDDDVAMDEPFLQFRRNVFFPKRRELQIHDEEVLRLLYEEAKGNVLAARYPCDVEDCEALGALVCRVQLGPYQPGRPAACDLREKLDSFLPAHLCKRGQSLFAALRGRGARAGPGEQGLLNAYRQVQEVSSDGGCEAALGTHYRAYLLKCHELPFYGCAFFHGEVDKPAQGFLHRGGRKPVSVAISLEGVHVIDSREKHVLLGLRFQELSWDHTSPEEEEPILWLEFDGDSEGTPVNKLLKIYSKQAELMSSLIEYCIELSQAAEPAGPQDSATGSPSDPSSSLAPVQRPKLRRQGSVVSSRIQHLSTIDYVEDGKGIRRVKPKRTTSFFSRQLSLGQGSYTVVQPGDSLEQG
binding: binds

No constants are given. Whether binding was seen depends on the method and setting. Binding seen in cells or lysates may run through a third protein. Binding calls can cover weak binding; strength is not graded here. Tags and fused reporters may be left off the sequences shown.
